At least one structure is not confirmed: it was looked up by name or label, or the drawing left a doubt.
What was measured:
BMDMs = experiment: Efferocytosis of ACs by BMDMs under PI3K inhibition; type: cell-based, mouse; conditions: 10 μM, pretreated 60 minutes and during efferocytosis; control and Wdfy3 knockout BMDMs
thymocytes = experiment: In vivo thymus efferocytosis assay; set-up: species or system mice; conditions: 18 hours
[1] = Cre- and Cre+ mice, 250 μg i.p., vs PBS
[2] = Ctrl mice (hWDFY3Tg study), i.p.

Structure (SMILES) | uptake of ACs (BMDMs) | macrophage infiltration (F4/80+) in the thymus (thymocytes; [1]) | percentage of Annexin V+ cells in the thymus (thymocytes; [1]) | thymus weight (thymocytes; [1]) | total number of cells per thymus (thymocytes; [1]) | thymus cellularity (thymocytes; [2]) | thymus weight (thymocytes; [2])
O=c1cc(N2CCOCC2)oc2c(-c3ccccc3)cccc12 [LY294002] | markedly reduced |  |  |  |  |  | 
C[C@@H]1C[C@H]2[C@@H]3CCC4=CC(=O)C=C[C@]4(C)[C@@]3(F)[C@@H](O)C[C@]2(C)[C@@]1(O)C(=O)CO [dexamethasone] |  | increased | higher | reduced | reduced | decreased | decreased

— US20250186546A1, “Compositions and Methods to Prevent, Inhibit or Treat Autoimmune and Vascular Disease” (priority 2023, published 2025)
